# The supplement of paper PMC9135407
# Values joined by “and” are separate entries in the source; they are usually repeats but may differ in a detail not shown here. Identical values can stand only once. Counter-ions that a name gives are not always drawn. ± gives the standard deviation of the averaged measurements. Some of the results follow. Part of the spread comes from offsets between plates or batches.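 Culture-activated primary human stellate myofibroblasts, where regained lipid droplets signal inactivation. Value: share of Hoechst-counted cells above a per-plate Bodipy cutoff, in duplicate wells, with DMSO negative and nortriptyline positive controls on each plate. Hits: a control-normalized score above the plate's top-tenth-percentile nortriptyline wells, or one of a plate's three best wells. Final well concentrations are not given.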
# Test system: primary human hepatic stellate cells (donor 1)
# Assay: percent Bodipy-positive cells; higher = more lipid droplet accumulation
# Details: 48 h
# [1] = library stock concentration: 1 mM
# [2] = library stock concentration: 10 mM
# [3] = library stock concentration: 3.33 mM
# [4] = library stock concentration: 80 uM
# [5] = library stock concentration: 400 uM
# [6] = library stock concentration: 2 mM
smiles,measurement,setting,value
CCCCC/C=C\C/C=C\C/C=C\C/C=C\CCCCNC(=O)c1ccc(O)cc1,percent Bodipy-positive cells,[1],7.27 ± 3.8%
CN(C)CCCCCCOc1ccc(-n2ccnc2)cc1,percent Bodipy-positive cells,[1],12.7% and 7.43%
CN1CCN(c2cc3c(cc2F)c(=O)c(C(=O)O)cn3-c2ccc(F)cc2)CC1,percent Bodipy-positive cells,[2],23.8 ± 7.5%
O=C(O)CCCC[C@@H]1SC[C@@H]2NC(=O)N[C@@H]21 [Biotin],percent Bodipy-positive cells,,21.5 ± 2.1%
same,percent Bodipy-positive cells,[2],12.7 ± 2.3%
O=C(O)CCCC[C@@H]1SC[C@@H]2NC(=O)N[C@@H]21 [Biotin (Vitamin B7)],percent Bodipy-positive cells,[3],10.9 ± 1.2%
same,percent Bodipy-positive cells,[2],28.9 ± 20%
CC(=O)O.N=C(N)N/N=C/c1c(Cl)cccc1Cl [Guanabenz acetate],percent Bodipy-positive cells,[2],91.86 ± 0.19%
CCOC(=O)Nc1ccc(NCc2ccc(F)cc2)nc1N [Flupirtine maleate],percent Bodipy-positive cells,[3],14.2 ± 1.9%
same,percent Bodipy-positive cells,[2],43.9% and 52.9%
COCC(=O)Nc1c(I)c(C(=O)NCC(O)CO)c(I)c(C(=O)N(C)CC(O)CO)c1I (stereo not given) [Iopromide],percent Bodipy-positive cells,,7.34 ± 2.2%
"C[C@@]1(O)CCOC(=O)C1 [Mevalonic-D, L acid lactone]",percent Bodipy-positive cells,,8.9 ± 0.58%
"Cn1nc2c3c(cccc31)C(=O)c1ccccc1-2 [JNK Inhibitor, Negative Control]",percent Bodipy-positive cells,[3],14.9 ± 4.2%
C[C@@]1(c2cc(-c3cncnc3)c(F)cc2F)CCSC(N)=N1,percent Bodipy-positive cells,[3],10.1 ± 2.6%
same,percent Bodipy-positive cells,[2],21.5 ± 7.2%
C[C@H]1Oc2cc(cnc2N)-c2c(nn(C)c2C#N)CN(C)C(=O)c2ccc(F)cc21,percent Bodipy-positive cells,[4],6.84 ± 3.3%
same,percent Bodipy-positive cells,[5],6.87 ± 2.3%
same,percent Bodipy-positive cells,[6],4.21 ± 0.93%
same,percent Bodipy-positive cells,[2],5.45 ± 2.3%
Cn1c(=O)c2c(ncn2CCO)n(C)c1=O [Etofylline],percent Bodipy-positive cells,,26.3 ± 6.1%
CCc1cnn2c(NCc3ccc[n+]([O-])c3)cc(N3CCCC[C@H]3CCO)nc12 [Dinaciclib],percent Bodipy-positive cells,[4],39.2 ± 5.8%
same,percent Bodipy-positive cells,[5],38.9 ± 9.2%
same,percent Bodipy-positive cells,[6],44 ± 2.4%
same,percent Bodipy-positive cells,[2],56.8 ± 2%
CCc1cnn2c(NCc3ccc[n+]([O-])c3)cc(N3CCCC[C@H]3CCO)nc12,percent Bodipy-positive cells,[3],55.1 ± 4.6%
same,percent Bodipy-positive cells,[2],62.3 ± 3.4%
O=C1NC(=O)[C@@H](c2cn3c4c(cccc24)CCC3)[C@@H]1c1c[nH]c2ccccc12 [Tivantinib],percent Bodipy-positive cells,[4],15.3 ± 3%
same,percent Bodipy-positive cells,[5],27.5 ± 7.5%
same,percent Bodipy-positive cells,[6],12.4 ± 1.6%
same,percent Bodipy-positive cells,[2],31.1 ± 5.4%
COC(C)(C)CCCC(C)C/C=C/C(C)=C/C(=O)O (stereo not given) [Methoprene acid],percent Bodipy-positive cells,[1],7.42 ± 6.7%
"Cl.OCCNCCCOc1cccc(Cl)c1Cl [2,3-DCPE hydrochloride]",percent Bodipy-positive cells,[2],70.388 ± 0.025%
CCCCCCCCCCCCCCSCC(=O)O [Tetradecylthioacetic acid],percent Bodipy-positive cells,[2],24.1 ± 3.6%
CCCn1cnc2c1c(=O)n(CCCCC(C)=O)c(=O)n2C [Propentofylline],percent Bodipy-positive cells,[2],19.6 ± 4.1%
CCCc1cc(C(=O)c2ccc(-c3ccccc3)cc2)ccc1OCCCN1CCCc2c(OC(C)(C)C(=O)O)cccc21,percent Bodipy-positive cells,[1],11.1 ± 0.22%
O=C(O)CN(CCN(CC(=O)O)CC(=O)O)CCN(CC(=O)O)CC(=O)O [Pentetic acid],percent Bodipy-positive cells,,8.5 ± 3.3%
same,percent Bodipy-positive cells,library stock concentration: 5.1 mM,91.9 ± 8.1%
O=C(O)CN(CCN(CC(=O)O)CC(=O)O)CCN(CC(=O)O)CC(=O)O [Diethylenetriaminepentaacetic acid],percent Bodipy-positive cells,[2],55.5 ± 3.2%
CC(C)(CO)Cc1cc(C(C)(C)C)c(O)c(C(C)(C)C)c1,percent Bodipy-positive cells,[2],15.5 ± 0.18%
C#CCN(C)CCCOc1ccc(Cl)cc1Cl [Clorgyline hydrochloride],percent Bodipy-positive cells,,43.4 ± 17%
same,percent Bodipy-positive cells,[2],56.6 ± 8.3%
C#CCN(C)CCCOc1ccc(Cl)cc1Cl,percent Bodipy-positive cells,[2],38.9 ± 2.1%
CCc1cc2c(c(CC)n1)CCC(=O)N2Cc1ccc(-c2ccccc2-c2nn[nH]n2)cc1 [ZD 7155 hydrochloride],percent Bodipy-positive cells,[2],6.64 ± 1%
"CC(C)NCC(O)c1cc(O)cc(O)c1 (stereo not given) [Metaproterenol sulfate, orciprenaline sulfate]",percent Bodipy-positive cells,,25.3 ± 5.7%
CC(C)NCC(O)c1cc(O)cc(O)c1 (stereo not given) [Metaproterenol hemisulfate],percent Bodipy-positive cells,[2],47.5 ± 20%
CC(C)NCC(O)c1cc(O)cc(O)c1 (stereo not given) [Metaproterenol],percent Bodipy-positive cells,library stock concentration: 9.5 mM,4.73 ± 0.26%
same,percent Bodipy-positive cells,[2],14.9% and 35.7%
CC(C(=O)Nc1cccc(/N=C/c2c(O)ccc3ccccc23)c1)c1ccccc1 (stereo not given) [Salermide],percent Bodipy-positive cells,[1],13 ± 5.2%
"CC(=O)/C(C)=N/O [2,3-Butanedione monoxime]",percent Bodipy-positive cells,[2],34.2 ± 1.1%
COCC(=O)O[C@]1(CCN(C)CCCc2nc3ccccc3[nH]2)CCc2cc(F)ccc2[C@@H]1C(C)C [Mibefradil dihydrochloride],percent Bodipy-positive cells,[2],98.3% and 97.7%
O=C(O)CCCCC1CCSS1 (stereo not drawn) [(?)-alpha-Lipoic Acid],percent Bodipy-positive cells,[2],17.1 ± 0.98%
O=C(O)C(S)=Cc1c[nH]c2ccc(F)cc12,percent Bodipy-positive cells,[3],31.4 ± 14%
same,percent Bodipy-positive cells,[2],21.7 ± 6.8%
COc1ccc2[nH]c(C(=O)c3ccccc3)cc2c1,percent Bodipy-positive cells,[2],37.6 ± 1.9%
O=C(/C=C/C=C/c1ccc2c(c1)OCO2)N1CCCCC1 [Piperine],percent Bodipy-positive cells,,36.2 ± 1.8%
same,percent Bodipy-positive cells,[3],10.2 ± 0.47%
same,percent Bodipy-positive cells,library stock concentration: 7 mM,17.8 ± 3.4%
same,percent Bodipy-positive cells,[2],17.4% and 21.9%
O=c1c2ccccc2nc2n1CCc1c-2[nH]c2ccccc12 [Rutaecarpine],percent Bodipy-positive cells,[3],12.5 ± 5%
same,percent Bodipy-positive cells,[2],62.5 ± 9.6%
